Literature values in patent US20070031815A1, “Screening method for identifying hsp90 modulators” (University of Liverpool, priority 2003, published 2007).
At least one structure is not confirmed: it was looked up by name or label, or the drawing left a doubt.

Key:
[1] = tested on: Botrytis; settings: Botrytis (fungi); cited from earlier work
[2] = tested on: KB cells; settings: cited from earlier work

## COC1=C2C[C@@H](C)C[C@H](OC)[C@H](O)[C@@H](C)/C=C(\C)[C@H](OC(N)=O)[C@@H](OC)/C=C\C=C(/C)C(=O)NC(=CC1=O)C2=O [GA, Geldanamycin]
[1]
  MIC: < 0.5 ng/mL
[2]
  active concentration against mammalian cells: 0.1 ng/mL
